{"source": "patent US20100061982A1", "about": "“3-SUBSTITUTED-1H-INDOLE, 3-SUBSTITUTED-1H-PYRROLO[2,3-B]PYRIDINE AND 3-SUBSTITUTED-1H-PYRROLO[3,2-B]PYRIDINE COMPOUNDS, THEIR USE AS MTOR KINASE AND PI3 KINASE INHIBITORS, AND THEIR SYNTHESES” (priority 2008, published 2010)", "origin": "cited, not measured here", "system": "preclinical mouse cancer models", "settings": "prostrate, breast, ovarian, lung, multiple myeloma, and brain cancers; cited from earlier work", "note": "At least one structure is not confirmed: it was looked up by name or label, or the drawing left a doubt.", "data": [{"compound": "N=C(N)NCCC[C@H](NC(=O)CCC(=O)OC[N+]1(c2cc(=O)c3cccc(-c4ccccc4)c3o2)CCOCC1)C(=O)NCC(=O)N[C@@H](CC(=O)O)C(=O)N[C@@H](CO)C(=O)[O-]", "note": "[SF-1126]", "values": [{"measurement": "activity in preclinical mouse cancer models", "value": "active"}]}]}
